# Values quoted from earlier work, collected in patent US10457740B1, “Methods and compositions for treating cancer using P2RX2 inhibitors” (Flagship Pioneering Innovations V, Inc., priority 2018, dated 2019).
# Some of these results come from one statement about several compounds together. For at least one compound, name, drawing or mass did not settle the structure.
# Tested on: P2RX2
# Details: P2RX2-specific inhibitors
row,SMILES,IC50 [µM]
1,Cc1nc(N=Nc2ccc(S(=O)(=O)O)cc2S(=O)(=O)O)c(COP(=O)(O)O)c(C=O)c1O [CHEMBL69234],< 10
2,Cc1nc(N=Nc2cc(S(=O)(=O)O)ccc2S(=O)(=O)O)c(COP(=O)(O)O)c(C=O)c1O [CHEMBL69727],< 10
3,Cc1nc(/N=N/c2ccccc2)c(COP(=O)(O)O)c(C=O)c1O [CHEMBL116926],< 10
4,Cc1nc(/N=N/c2ccc(C(=O)O)cc2)c(CCP(=O)(O)O)c(C=O)c1O [CHEMBL117766],< 10
5,Cc1nc(/N=N/c2cc(CP(=O)(O)O)cc(CP(=O)(O)O)c2)c(CP(=O)(O)O)c(C=O)c1O [CHEMBL118007],< 10
6,Cc1nc(/N=N/c2ccc(C(=O)O)cc2)c(CP(=O)(O)O)c(C=O)c1O [CHEMBL119180],< 10
7,Cc1nc(/N=N/c2cc(S(=O)(=O)O)ccc2S(=O)(=O)O)c(CP(=O)(O)O)c(C=O)c1O [CHEMBL119416],< 10
8,Nc1c(S(=O)(=O)O)cc(Nc2ccc(Nc3nc(Cl)nc(Cl)n3)c(S(=O)(=O)O)c2)c2c1C(=O)c1ccccc1C2=O [CHEMBL131271],< 10
9,Cc1cc(C)c(Nc2cc(S(=O)(=O)O)c(N)c3c2C(=O)c2ccccc2C3=O)c(C)c1 [CHEMBL133576],< 10
10,Nc1c(S(=O)(=O)O)cc(Nc2ccc(Nc3nc(Cl)nc(Nc4ccccc4S(=O)(=O)O)n3)c(S(=O)(=O)O)c2)c2c1C(=O)c1ccccc1C2=O [CHEMBL134193],< 10
11,Nc1c(S(=O)(=O)O)cc(Nc2ccccc2)c2c1C(=O)c1ccccc1C2=O [CHEMBL256057],< 10
12,Cc1ccc(Nc2cc(S(=O)(=O)O)c(N)c3c2C(=O)c2ccccc2C3=O)c(C)c1 [CHEMBL256688],< 10
13,Cc1ccccc1Nc1cc(S(=O)(=O)O)c(N)c2c1C(=O)c1ccccc1C2=O [CHEMBL256864],< 10
14,COc1ccccc1Nc1cc(S(=O)(=O)O)c(N)c2c1C(=O)c1ccccc1C2=O [CHEMBL257495],< 10
15,Cc1ccc(C(=O)Nc2ccc(S(=O)(=O)O)c3cc(S(=O)(=O)O)cc(S(=O)(=O)O)c23)cc1NC(=O)c1cccc(NC(=O)Nc2cccc(C(=O)Nc3cc(C(=O)Nc4ccc(S(=O)(=O)O)c5cc(S(=O)(=O)O)cc(S(=O)(=O)O)c45)ccc3C)c2)c1 [CHEMBL265502],< 10
16,Nc1c(S(=O)(=O)O)cc(Nc2cccc(Cl)c2)c2c1C(=O)c1ccccc1C2=O [CHEMBL271672],< 10
17,CC(=O)Nc1ccc(Nc2cc(S(=O)(=O)O)c(N)c3c2C(=O)c2ccccc2C3=O)cc1 [CHEMBL271688],< 10
18,Cc1nc(/N=N/c2ccc(P(=O)(O)O)cc2)c(CP(=O)(O)O)c(C=O)c1O [CHEMBL331250],< 10
19,Cc1nc(/N=N/c2cc(C(=O)O)ccc2C(=O)O)c(CP(=O)(O)O)c(C=O)c1O [CHEMBL331358],< 10
20,COc1ccc(Nc2cc(S(=O)(=O)O)c(N)c3c2C(=O)c2ccccc2C3=O)cc1 [CHEMBL401735],< 10
21,Cc1cccc(Nc2cc(S(=O)(=O)O)c(N)c3c2C(=O)c2ccccc2C3=O)c1C [CHEMBL402239],< 10

row,SMILES,IC50 [µM]
1,CCOc1ccccc1Nc1cc(S(=O)(=O)O)c(N)c2c1C(=O)c1ccccc1C2=O [CHEMBL403051],< 10
2,Cc1ccc(Nc2cc(S(=O)(=O)O)c(N)c3c2C(=O)c2ccccc2C3=O)cc1 [CHEMBL404450],< 10
3,Nc1c(S(=O)(=O)O)cc(Nc2cccc([N+](=O)[O-])c2)c2c1C(=O)c1ccccc1C2=O [CHEMBL404659],< 10
4,O=C(Nc1cccc(C(=O)Nc2cc(C(=O)Nc3ccc(S(=O)(=O)O)c4cc(S(=O)(=O)O)cc(S(=O)(=O)O)c34)ccc2F)c1)Nc1cccc(C(=O)Nc2cc(C(=O)Nc3ccc(S(=O)(=O)O)c4cc(S(=O)(=O)O)cc(S(=O)(=O)O)c34)ccc2F)c1 [CHEMBL413145],< 10
5,CNc1ncc(Oc2cc(I)c(OC)cc2C(C)C)c(N)n1 [CHEMBL443930],< 10
6,COc1ccc(C(C)C)c(Oc2cnc(N)nc2N)c1 [CHEMBL444469],< 10
7,Cc1cccc(Nc2cc(S(=O)(=O)O)c(N)c3c2C(=O)c2ccccc2C3=O)c1 [CHEMBL445413],< 10
8,COc1cc(C(C)C)c(Oc2cnc(N)nc2N)cc1C [CHEMBL446310],< 10
9,Nc1ccccc1Nc1cc(S(=O)(=O)O)c(N)c2c1C(=O)c1ccccc1C2=O [CHEMBL450832],< 10
10,Cc1cc(/N=N/c2ccc(S(=O)(=O)O)cc2S(=O)(=O)O)c(COP(=O)(O)O)c(C=O)c1O [CHEMBL477339],< 10
11,COc1cc(C(C)C)c(Oc2cnc(NC3CCN(S(C)(=O)=O)CC3)nc2N)cc1I [CHEMBL492299],< 10
12,COc1cc(C(C)C)c(Oc2cnc(N)nc2N)cc1C#N [CHEMBL492562],< 10
13,COCCNc1ncc(Oc2cc(I)c(OC)cc2C(C)C)c(N)n1 [CHEMBL492703],< 10
14,COc1cc(C(C)C)c(Oc2cnc(NCCN)nc2N)cc1I [CHEMBL492729],< 10
15,COc1cc(C(C)C)c(Oc2cnc(NCCN3CCC(O)CC3)nc2N)cc1I [CHEMBL492744],< 10
16,COc1cc(C(C)C)c(Oc2cnc(NCCN3CCNCC3)nc2N)cc1I [CHEMBL492745],< 10
17,COc1cc(C(C)C)c(Oc2cncnc2N)cc1I [CHEMBL492789],< 10
18,COc1cc(C(C)C)c(Oc2cnc(NCCNC(C)=O)nc2N)cc1I [CHEMBL492933],< 10
19,COc1cc(C(C)C)c(Oc2cnc(NCCS(C)(=O)=O)nc2N)cc1I [CHEMBL492934],< 10
20,COc1cc(C(C)C)c(Oc2cnc(NCCN(C)C)nc2N)cc1I [CHEMBL492935],< 10
21,COc1cc(C(C)C)c(Oc2cnc(N)nc2N)cc1-c1ncc[nH]1 [CHEMBL492968],< 10

row,SMILES,IC50 [µM]
1,COc1cc(C(C)C)c(Oc2cnc(NCCN3CCOCC3)nc2N)cc1I [CHEMBL493546],< 10
2,COc1cc(C(C)C)c(Oc2cnc(NC3CCOCC3)nc2N)cc1I [CHEMBL493547],< 10
3,COc1cc(C(C)C)c(Oc2cnc(C)nc2N)cc1I [CHEMBL493740],< 10
4,COc1cc(C(C)C)c(Oc2cnc(NCC(F)(F)F)nc2N)cc1I [CHEMBL493741],< 10
5,COc1cc(Oc2cnc(N)nc2N)c(C(C)C)cc1I [CHEMBL494176],< 10
6,COc1cc(C(C)C)c(Oc2cnc(N)nc2N)cc1C(C)C [CHEMBL494181],< 10
7,COc1cc(C(C)C)c(Oc2cnc(NCC(C)(CO)CO)nc2N)cc1I [CHEMBL494582],< 10
8,COc1cc(Cc2cnc(N)nc2N)c(C(C)C)cc1OC [CHEMBL494772],< 10
9,CCc1cc(OC)c(OC)cc1Oc1cnc(N)nc1N [CHEMBL494832],< 10
10,COc1cc(Oc2cnc(N)nc2N)c(C(C)C)cc1OC [CHEMBL494833],< 10
11,CC(C)c1ccccc1Oc1cnc(N)nc1N [CHEMBL494834],< 10
12,COc1cc(C(C)C)c(Oc2cnc(N)nc2N)cc1F [CHEMBL494940],< 10
13,COc1cc(C(C)C)c(Oc2cnc(N)nc2N)cc1-c1ccccc1 [CHEMBL495195],< 10
14,COc1cc(C(C)C)c(Oc2cnc(N)nc2N)cc1Br [CHEMBL495203],< 10
15,Cc1cc(C)c(Nc2cc(S(=O)(=O)O)c(N)c3c2C(=O)c2ccccc2C3=O)c(C)c1N [CHEMBL495796],< 10
16,Nc1ccc(Nc2cc(S(=O)(=O)O)c(N)c3c2C(=O)c2ccccc2C3=O)cc1S(=O)(=O)O [CHEMBL495834],< 10
17,Nc1c(S(=O)(=O)O)cc(Nc2ccc(S(=O)(=O)O)cc2)c2c1C(=O)c1ccccc1C2=O [CHEMBL496022],< 10
18,Nc1c(S(=O)(=O)O)cc(Nc2ccc(Nc3nc(Cl)nc(Cl)n3)cc2)c2c1C(=O)c1ccccc1C2=O [CHEMBL496401],< 10
19,Nc1cc(Nc2cc(S(=O)(=O)O)c(N)c3c2C(=O)c2ccccc2C3=O)cc(C(=O)O)c1 [CHEMBL498038],< 10
20,Nc1c(S(=O)(=O)O)cc(Nc2ccc(Nc3ncccn3)c(S(=O)(=O)O)c2)c2c1C(=O)c1ccccc1C2=O [CHEMBL499428],< 10
21,COc1cc(C(C)C)c(Oc2cnc(N)nc2N)cc1C(=O)O [CHEMBL500550],< 10

row,SMILES,IC50 [µM]
1,CCc1cc(Oc2cnc(N)nc2N)c(C(C)C)cc1OC [CHEMBL502618],< 10
2,COc1ccc(Oc2cnc(N)nc2N)c(C(C)C)c1 [CHEMBL504607],< 10
3,Nc1cc(Nc2cc(S(=O)(=O)O)c(N)c3c2C(=O)c2ccccc2C3=O)ccc1S(=O)(=O)O [CHEMBL521709],< 10
4,COc1cc(C(C)C)c(Oc2cnc(N)nc2N)cc1C(N)=O [CHEMBL521820],< 10
5,COc1cc(C(C)C)c(Oc2cnc(N)nc2N)cc1-c1nnn[nH]1 [CHEMBL521983],< 10
6,Nc1c(S(=O)(=O)O)cc(Nc2cc(Cl)ccc2C(=O)O)c2c1C(=O)c1ccccc1C2=O [CHEMBL522053],< 10
7,COc1cc(Oc2cnc(N)nc2N)c(C(C)C)cc1-c1ccc(F)cc1 [CHEMBL522184],< 10
8,COc1cc(C(C)C)c(Oc2cnc(NCCN3CCCCC3)nc2N)cc1I [CHEMBL523000],< 10
9,COc1cc(Oc2cnc(N)nc2N)c(C(C)C)cc1Br [CHEMBL523043],< 10
10,Nc1c(S(=O)(=O)O)cc(Nc2ccccc2C(=O)O)c2c1C(=O)c1ccccc1C2=O [CHEMBL524064],< 10
11,Nc1c(S(=O)(=O)O)cc(Nc2ccc(Cl)cc2C(=O)O)c2c1C(=O)c1ccccc1C2=O [CHEMBL524284],< 10
12,COc1cc(C(C)C)c(Oc2cnc(N)nc2N)cc1I [CHEMBL526307],< 10
13,Nc1c(S(=O)(=O)O)cc(Nc2ccc(Oc3ccccc3)cc2)c2c1C(=O)c1ccccc1C2=O [CHEMBL597203],< 10
14,Nc1c(S(=O)(=O)O)cc(Nc2ccc(CC(=O)O)cc2)c2c1C(=O)c1ccccc1C2=O [CHEMBL597591],< 10
15,Nc1cccc(Nc2cc(S(=O)(=O)O)c(N)c3c2C(=O)c2ccccc2C3=O)c1 [CHEMBL597820],< 10
16,Nc1c(S(=O)(=O)O)cc(Nc2cccc(C(=O)O)c2)c2c1C(=O)c1ccccc1C2=O [CHEMBL598857],< 10
17,Nc1c(S(=O)(=O)O)cc(Nc2ccc(F)cc2)c2c1C(=O)c1ccccc1C2=O [CHEMBL604158],< 10
18,Nc1c(S(=O)(=O)O)cc(Nc2ccc(C(=O)O)cc2)c2c1C(=O)c1ccccc1C2=O [CHEMBL604300],< 10
19,Nc1c(S(=O)(=O)O)cc(NC2CCCCC2)c2c1C(=O)c1ccccc1C2=O [CHEMBL606414],< 10
